This is one part of the list.
Legend:
Assay in all cases: log2 fold change, soluble protein after heating vs DMSO (PISA); higher = thermal stabilisation; K562 lysate, 10 uM; active = over 0.2 and 3.5 SD of the protein, either way, in both replicates (recomputed)
[1] = compound: CC(C)C1=C2N=C(C=C(N2N=C1)NCC3=CC=CC=C3)NCCCCCCN
Outline: (§1)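 Thermal stability, expressed as log-two fold change relative to solvent controls, is given from duplicates. Crude K562 extract in PBS pH 7.4 with 1 mM MgCl2, at 1 mg/mL protein, was treated with 10 μM compound for 30 min and heated in aliquots for 3 min across 48°C-58°C. After pooling, adjustment to 0.5% NP-40 at 4°C and centrifugation at 21,000xg for 90 min, supernatant protein was measured by TMTpro 16plex LC-MS/MS with channel sums equalised.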

Amino acid sequences for entries named in this document (tags omitted). A change or cut given only in a name is not applied to a line headed by its entry.
UniProt Q6P087: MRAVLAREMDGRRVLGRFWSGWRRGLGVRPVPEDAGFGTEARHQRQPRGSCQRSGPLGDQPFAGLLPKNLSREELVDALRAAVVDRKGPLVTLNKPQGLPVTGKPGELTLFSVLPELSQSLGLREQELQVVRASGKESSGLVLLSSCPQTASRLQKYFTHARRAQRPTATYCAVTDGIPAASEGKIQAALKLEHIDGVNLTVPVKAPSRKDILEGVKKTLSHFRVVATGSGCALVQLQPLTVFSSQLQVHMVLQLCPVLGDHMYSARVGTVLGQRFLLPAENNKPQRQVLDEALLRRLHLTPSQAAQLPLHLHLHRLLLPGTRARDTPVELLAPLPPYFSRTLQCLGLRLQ
UniProt P60903, whole entry, looked up: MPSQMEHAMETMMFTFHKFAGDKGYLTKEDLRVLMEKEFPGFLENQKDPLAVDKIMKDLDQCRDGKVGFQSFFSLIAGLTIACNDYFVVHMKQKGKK
UniProt Q7L3V2: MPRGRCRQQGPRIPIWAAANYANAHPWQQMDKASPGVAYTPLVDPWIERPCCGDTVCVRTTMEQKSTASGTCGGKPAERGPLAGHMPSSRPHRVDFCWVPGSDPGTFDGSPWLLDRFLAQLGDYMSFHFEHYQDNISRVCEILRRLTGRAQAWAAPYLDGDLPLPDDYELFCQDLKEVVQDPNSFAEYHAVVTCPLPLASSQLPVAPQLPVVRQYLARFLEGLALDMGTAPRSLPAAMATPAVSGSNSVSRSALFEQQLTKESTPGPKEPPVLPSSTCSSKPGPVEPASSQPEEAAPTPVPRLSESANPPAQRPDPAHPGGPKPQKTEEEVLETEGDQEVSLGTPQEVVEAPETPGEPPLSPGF
UniProt Q9UBS0: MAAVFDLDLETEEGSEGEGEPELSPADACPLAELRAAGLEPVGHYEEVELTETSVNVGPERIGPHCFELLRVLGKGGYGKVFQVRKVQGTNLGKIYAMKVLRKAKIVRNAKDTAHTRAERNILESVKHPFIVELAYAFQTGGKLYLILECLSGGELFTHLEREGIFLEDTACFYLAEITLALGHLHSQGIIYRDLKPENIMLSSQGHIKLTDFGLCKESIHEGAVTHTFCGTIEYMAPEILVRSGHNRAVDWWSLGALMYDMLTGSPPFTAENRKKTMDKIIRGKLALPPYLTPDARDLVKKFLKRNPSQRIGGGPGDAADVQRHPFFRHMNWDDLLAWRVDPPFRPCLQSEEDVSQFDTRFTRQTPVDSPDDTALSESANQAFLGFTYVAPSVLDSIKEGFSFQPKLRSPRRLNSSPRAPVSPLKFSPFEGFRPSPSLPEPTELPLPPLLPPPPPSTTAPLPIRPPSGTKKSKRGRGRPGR
UniProt Q9UIY3: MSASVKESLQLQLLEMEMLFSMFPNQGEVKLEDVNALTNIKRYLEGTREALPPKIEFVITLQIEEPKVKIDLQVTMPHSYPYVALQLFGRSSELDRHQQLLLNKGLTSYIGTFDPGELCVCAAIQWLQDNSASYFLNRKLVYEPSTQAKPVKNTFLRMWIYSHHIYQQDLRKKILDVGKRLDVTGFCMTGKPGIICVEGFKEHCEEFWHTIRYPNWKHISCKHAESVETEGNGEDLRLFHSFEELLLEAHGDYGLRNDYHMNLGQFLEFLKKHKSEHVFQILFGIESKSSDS
UniProt Q9BUV0: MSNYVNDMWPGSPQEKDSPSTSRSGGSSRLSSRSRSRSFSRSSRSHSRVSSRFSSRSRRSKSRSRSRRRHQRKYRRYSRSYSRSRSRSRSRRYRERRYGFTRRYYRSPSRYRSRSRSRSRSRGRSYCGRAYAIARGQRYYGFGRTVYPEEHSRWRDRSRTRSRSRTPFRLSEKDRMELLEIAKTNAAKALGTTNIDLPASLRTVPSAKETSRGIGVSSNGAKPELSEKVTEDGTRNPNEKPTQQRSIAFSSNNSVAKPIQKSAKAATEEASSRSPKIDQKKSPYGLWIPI
UniProt Q9Y2B1: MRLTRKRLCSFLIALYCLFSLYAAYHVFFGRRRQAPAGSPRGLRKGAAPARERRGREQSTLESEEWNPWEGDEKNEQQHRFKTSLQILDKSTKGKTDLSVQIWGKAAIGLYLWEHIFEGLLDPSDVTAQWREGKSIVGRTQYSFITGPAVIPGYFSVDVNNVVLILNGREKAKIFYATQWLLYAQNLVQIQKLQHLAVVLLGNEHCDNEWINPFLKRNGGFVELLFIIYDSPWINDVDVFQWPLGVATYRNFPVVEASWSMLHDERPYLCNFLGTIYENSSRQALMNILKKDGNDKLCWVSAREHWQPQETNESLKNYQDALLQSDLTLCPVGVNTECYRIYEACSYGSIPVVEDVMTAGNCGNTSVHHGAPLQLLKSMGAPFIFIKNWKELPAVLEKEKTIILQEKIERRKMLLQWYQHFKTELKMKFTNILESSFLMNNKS

[2] = compound: CC1=C(C(CC(=O)N1)C2=CC=C(C=C2)C(F)(F)F)C(=O)NC3=C(C=C4C(=C3)C=NN4)F
Outline: as §1

[3] = compound: CC1=C(C2=C(C=C1)C(=O)C3=CC=CC=C3N2CCCN)C
Outline: as §1

[4] = compound: CC1=C(C=C(C=C1)NC(=O)C2=CC(=CC=C2)C(C)(C)C#N)NC3=CC4=C(C=C3)N=CN(C4=O)C
Outline: as §1

[5] = compound: C=CC(=O)N1CCC[C@@H](n2nc(-c3ccc(Oc4ccccc4)cc3)c3c(N)ncnc32)C1 [ibrutinib]
Outline: as §1

[6] = compound: CC(C)(C)Cn1c(N)nc2ccc(-c3[nH]c(C(C)(C)C)nc3-c3ccc(F)cc3)nc21 [ralimetinib]
Outline: as §1

[7] = compound: CC(C)(O)CC(=O)NCCn1ccc2ncnc(Nc3ccc(Oc4cccc(C(F)(F)F)c4)c(Cl)c3)c21
Outline: as §1

[8] = compound: CC1=C(C=C(C=C1)NC(=O)C2=CC(=CC=C2)N(C)C)NC(=O)C3=CC=C(C=C3)O
Outline: as §1

[9] = compound: CC(=O)c1cnc2ccc(-c3cc(Cl)c(O)c(Cl)c3)nc2c1N[C@H]1CC[C@H](CN(C)C)CC1
Outline: as §1

[10] = compound: CC1=CC=C(C=C1)SC2=C3C=C(SC3=CN=C2)C(=O)N
Outline: as §1

Target	log2 fold change [1]	log2 fold change [2]	log2 fold change [3]	log2 fold change [4]	log2 fold change [5]	log2 fold change [6]	log2 fold change [7]	log2 fold change [8]	log2 fold change [9]	log2 fold change [10]
RPUSD3 (UniProt Q6P087)	inactive: -0.023	inactive: 0.085	inactive: 0.045	inactive: 0.047	–	–	–	–	–	–
S100A10 (UniProt P60903)	inactive: -0.008	inactive: 0.756	inactive: 0.838	inactive: -0.232	inactive: 0.118	inactive: 0.665	inactive: 0.725	inactive: 0.817	–	–
RTL10 (UniProt Q7L3V2)	inactive: -0.044	inactive: 0.004	inactive: 0.118	inactive: -0.075	inactive: 0.103	inactive: -0.068	inactive: -0.081	inactive: -0.05	–	–
S100A6 (UniProt P06703)	inactive: -0.01	–	active: 0.793	inactive: 0.04	–	inactive: 0.117	inactive: 0.152	inactive: 0.199	inactive: -0.082	inactive: 0.032
RTN4, A0A0U1RQR6	–	–	–	–	–	inactive: -0.177	inactive: -0.169	inactive: -0.038	–	–
RPS6KB2 (UniProt Q9UBS0)	inactive: -0.002	inactive: -0.011	inactive: -0.062	inactive: -0.023	–	–	–	–	inactive: 0.185	inactive: -0.327
RWDD2A (UniProt Q9UIY3)	inactive: 0.067	–	inactive: 0.13	inactive: 0.048	inactive: 0.07	inactive: -0.008	inactive: -0.028	inactive: -0.022	–	–
RSRP1 (UniProt Q9BUV0)	–	–	inactive: 0.173	–	–	–	–	–	–	–
RXYLT1 (UniProt Q9Y2B1)	inactive: 0.068	inactive: -0.046	inactive: -0.173	–	–	inactive: -0.128	inactive: -0.071	inactive: -0.133	inactive: -0.107	inactive: 0.055

A different layout for some results above.
Target,log2 fold change [1],log2 fold change [2],log2 fold change [3],log2 fold change [4],log2 fold change [5],log2 fold change [6],log2 fold change [7],log2 fold change [8],log2 fold change [9],log2 fold change [10]
S100A6 (UniProt P06703),inactive: -0.01,–,active: 0.793,inactive: 0.04,–,inactive: 0.117,inactive: 0.152,inactive: 0.199,inactive: -0.082,inactive: 0.032
RSRP1 (UniProt Q9BUV0),–,–,inactive: 0.173,–,–,–,–,–,–,–

— the supplement of paper PMC10849652
